doi:10.1101/2023.03.18.533296
Results are given in words; binding and its absence hold for the method and conditions named. In cells and extracts the contact can be indirect. A yes stands for co-enrichment or nearness to the bait. Other partners may have been found. Where a sequence is shown, tags or fusion partners need not be part of it.

Chains of the proteins cited; added tags and fusions are not shown. Residues count along the entry.
UniProt Q9LZK5, residues 24-346: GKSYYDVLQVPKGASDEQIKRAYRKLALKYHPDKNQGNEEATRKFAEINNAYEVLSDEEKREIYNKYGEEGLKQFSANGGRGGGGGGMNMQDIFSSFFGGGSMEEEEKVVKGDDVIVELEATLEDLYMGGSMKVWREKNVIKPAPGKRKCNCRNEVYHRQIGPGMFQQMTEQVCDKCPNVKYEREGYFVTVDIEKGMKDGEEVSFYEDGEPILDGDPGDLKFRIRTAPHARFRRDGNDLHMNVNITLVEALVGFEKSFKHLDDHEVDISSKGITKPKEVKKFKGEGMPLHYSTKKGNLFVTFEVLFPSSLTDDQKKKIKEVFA
UniProt P55737: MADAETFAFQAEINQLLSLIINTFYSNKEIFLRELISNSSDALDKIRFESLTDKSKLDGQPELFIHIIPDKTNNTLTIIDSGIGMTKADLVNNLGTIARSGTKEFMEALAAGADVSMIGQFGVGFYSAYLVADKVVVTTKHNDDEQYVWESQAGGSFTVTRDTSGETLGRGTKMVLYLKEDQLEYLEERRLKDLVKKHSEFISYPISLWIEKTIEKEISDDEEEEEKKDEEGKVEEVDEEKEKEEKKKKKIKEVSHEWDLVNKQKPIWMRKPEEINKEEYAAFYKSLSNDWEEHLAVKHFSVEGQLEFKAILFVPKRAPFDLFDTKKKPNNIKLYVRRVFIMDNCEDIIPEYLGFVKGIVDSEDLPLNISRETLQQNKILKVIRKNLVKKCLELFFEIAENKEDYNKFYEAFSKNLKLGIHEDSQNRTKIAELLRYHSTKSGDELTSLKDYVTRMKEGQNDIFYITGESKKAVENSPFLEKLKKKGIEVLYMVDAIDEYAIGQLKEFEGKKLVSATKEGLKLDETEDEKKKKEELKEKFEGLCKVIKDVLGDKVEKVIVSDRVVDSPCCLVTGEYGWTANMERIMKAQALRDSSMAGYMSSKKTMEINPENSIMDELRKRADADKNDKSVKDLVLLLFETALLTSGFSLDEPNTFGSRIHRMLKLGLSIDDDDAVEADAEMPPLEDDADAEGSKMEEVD

Biological target: T1, GFP-VAMP721^Y57D (Arabidopsis thaliana) (UniProt Q9ZTW3)
T1 sequence: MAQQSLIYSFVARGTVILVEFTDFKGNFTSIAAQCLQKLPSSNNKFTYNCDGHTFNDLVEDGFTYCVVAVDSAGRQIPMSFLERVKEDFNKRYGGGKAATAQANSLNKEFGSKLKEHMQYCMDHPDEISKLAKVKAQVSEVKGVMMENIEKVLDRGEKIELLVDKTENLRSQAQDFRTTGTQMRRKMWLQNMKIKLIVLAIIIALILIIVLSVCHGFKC
Assay: affinity purification with mass spectrometry

| binding | Substance |
| --- | --- |
| binds | ERDJ3B (from UniProt Q9LZK5 24-346) |
| binds | HSP90-2 (from UniProt P55737 1-699) |
